Assay results taken from article PMC6710348.
No constants are given. Whether binding was seen depends on the method and setting. In cells and extracts the contact can be indirect. Some entries that bind do so weakly or less than the wild type.

Sequences of proteins named here, by UniProt entry; tags and fusion partners are left off. Residues count along the entry.
UniProt P30561, residues 10-848: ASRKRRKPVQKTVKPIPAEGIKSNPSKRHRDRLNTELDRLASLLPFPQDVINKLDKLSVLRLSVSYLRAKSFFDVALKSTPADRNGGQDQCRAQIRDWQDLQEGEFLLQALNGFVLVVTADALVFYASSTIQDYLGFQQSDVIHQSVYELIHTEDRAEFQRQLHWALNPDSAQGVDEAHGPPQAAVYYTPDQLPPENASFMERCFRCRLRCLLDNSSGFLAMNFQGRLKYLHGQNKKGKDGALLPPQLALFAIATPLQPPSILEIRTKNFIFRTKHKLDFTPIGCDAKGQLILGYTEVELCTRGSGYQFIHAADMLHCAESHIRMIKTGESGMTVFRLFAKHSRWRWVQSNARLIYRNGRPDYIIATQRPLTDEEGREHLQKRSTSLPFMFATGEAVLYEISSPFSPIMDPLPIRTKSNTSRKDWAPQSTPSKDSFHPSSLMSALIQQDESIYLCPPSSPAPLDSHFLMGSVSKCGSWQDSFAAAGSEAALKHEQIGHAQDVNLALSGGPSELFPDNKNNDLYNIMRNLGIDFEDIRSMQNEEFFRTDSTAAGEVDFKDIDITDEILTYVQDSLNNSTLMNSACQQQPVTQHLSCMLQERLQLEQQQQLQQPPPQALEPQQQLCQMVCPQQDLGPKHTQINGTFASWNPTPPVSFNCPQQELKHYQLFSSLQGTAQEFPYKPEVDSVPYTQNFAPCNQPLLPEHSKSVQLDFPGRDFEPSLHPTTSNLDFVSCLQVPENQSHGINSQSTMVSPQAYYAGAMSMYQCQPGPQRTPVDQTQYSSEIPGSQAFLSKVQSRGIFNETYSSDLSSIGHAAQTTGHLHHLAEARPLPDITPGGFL

Biological target: T1, Nuclear coactivator 7 (NCOA7), mouse (mouse) (UniProt Q6DFV7)
T1 sequence: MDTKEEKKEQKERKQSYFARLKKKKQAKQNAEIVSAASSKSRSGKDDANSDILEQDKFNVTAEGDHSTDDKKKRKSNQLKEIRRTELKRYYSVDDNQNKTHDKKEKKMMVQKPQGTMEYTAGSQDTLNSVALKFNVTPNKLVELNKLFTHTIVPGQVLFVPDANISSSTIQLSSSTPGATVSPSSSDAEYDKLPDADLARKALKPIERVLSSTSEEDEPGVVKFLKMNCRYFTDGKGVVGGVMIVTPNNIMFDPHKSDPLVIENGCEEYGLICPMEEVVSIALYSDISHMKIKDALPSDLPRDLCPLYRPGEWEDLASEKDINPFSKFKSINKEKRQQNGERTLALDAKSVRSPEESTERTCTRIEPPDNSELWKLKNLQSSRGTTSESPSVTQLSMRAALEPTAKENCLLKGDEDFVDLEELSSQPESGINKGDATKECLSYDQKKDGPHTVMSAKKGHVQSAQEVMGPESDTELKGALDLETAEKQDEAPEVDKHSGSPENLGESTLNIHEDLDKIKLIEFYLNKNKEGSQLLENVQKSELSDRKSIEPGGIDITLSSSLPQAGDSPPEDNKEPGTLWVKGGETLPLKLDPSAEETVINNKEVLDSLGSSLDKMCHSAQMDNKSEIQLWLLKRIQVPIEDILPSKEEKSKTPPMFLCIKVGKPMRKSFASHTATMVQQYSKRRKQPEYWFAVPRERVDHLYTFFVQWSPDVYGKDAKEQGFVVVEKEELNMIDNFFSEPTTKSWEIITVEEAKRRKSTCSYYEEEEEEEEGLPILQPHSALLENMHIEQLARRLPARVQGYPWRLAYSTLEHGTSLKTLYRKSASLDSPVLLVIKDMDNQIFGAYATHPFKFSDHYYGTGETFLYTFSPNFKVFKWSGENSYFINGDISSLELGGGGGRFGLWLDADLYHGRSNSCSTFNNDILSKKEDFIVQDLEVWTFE
Assay: co-IP; mouse AhR and NCOA7 coexpressed in human HEK293 cells; cells incubated 4 h with medium, 50 uM Kyn, 50 uM 3-HAA or both before lysis; immunoprecipitation with anti-NCOA7 antibody, Western blot with anti-AhR antibodies (text says reciprocal immunoprecipitation)

## Aryl hydrocarbon Receptor (AhR), mouse (from UniProt P30561 10-848)
  binding: binds
